Literature values, collected in patent US11737985B2 (priority 2013, dated 2023).
For at least one compound, name, drawing or mass did not settle the structure.

Tested on: SGLT2 and SGLT1
Conditions: ratio; cited from earlier work

Question: For `Cc1ccc([C@@H]2O[C@H](CO)[C@@H](O)[C@H](O)[C@H]2O)cc1Cc1ccc(-c2ccc(F)cc2)s1` [Canagliflozin], which “Selectivity (SGLT2:SGLT1)” value is on record?
Answer: 1:414
